The values that follow come from US6497899B2, “Rapidly disintegrating and fast-dissolving solid dosage form” (Pfizer, Inc., priority 2000, dated 2002).

Molecules are shown by their SMILES.

This data set is described as follows: Dissolution testing of medicated tablets, USP/NF method 711, apparatus 2 at 50 RPM, UV absorption. The format is physicochemical. To be noted: medicated steam extruded starch solid dosage form; dissolution media deionized H2O; apparatus 2, 50 RPM, 37 C. As for the experimental part: Dosage form dissolution is measured by the United States Pharmacopeia/National Formulary (USP/NF) method 711 (United States Pharmacopeia, Rockville, Md., USA) and is summarized below:
The assembly from Apparatus 1 is used except that a paddle formed from a blade and a shaft is used as the stirring element. The shaft is positioned so that its axis is not more than 2 mm at any point from the vertical axis of the vessel and rotates smoothly without significant wobble. The vertical center line of the blade passes through the axis of the shaft so that the bottom of the blade is flush with the bottom of the shaft. The distance of 25±2 mm between the blade and the inside bottom of the vessel is maintained during the test. The metallic or suitably inert, rigid blade and shaft comprise a single entity that may be coated with a suitable inert coating. The dosage unit is allowed to sink to the bottom of the vessel before rotation of the blade is started. A small, loose piece of nonreactive material such as not more than a few turns of wire helix may be attached to dosage units that would otherwise float. Other validated sinker devices may be used. […]
The stated volume of the dissolution medium (±1%) is placed in the vessel of the apparatus. The dissolution medium is equilibrated to 37±0.5°C., and the thermometer removed. One solid dosage form is placed in the apparatus, taking care to exclude air bubbles from the surface of the dosage-form unit and either apparatus is immediately operated at a rate of 50 rpm. The concentration of dissolved drug in dissolution medium is measured over time by ultraviolet spectrophotometer to calculate the dissolution rate.
The medicated tablets were dissolved according to USP/NF method 711 using apparatus 2 at 50 RPM. Levels of medicament released were determined by UV absorption. […] Dissolution rates were rapid with 61% of the drug releasing after 1 minute and 80% of the drug releasing after 5 minutes on average.

`COc1cc2c(cc1OC)C(=O)C(CC1CCN(Cc3ccccc3)CC1)C2.Cl` (stereo not drawn) [Donepezil.HCl] had a 1 minute release of 84.9%, a 5 minute release of 90.7% and a 60 minute release of 98.2%.
